PubChem BioAssay AID504795 | Drosophila RNAi Screening Center – 2011
This is not the whole library: the list holds selected reagents. 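Every listed dsRNA shows some phenotype; how reagents were selected for listing is not stated.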 A plus sign joins genes that one reagent is predicted to hit.

Aim: 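Genes required for normal axon extension and glial cell shape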 (primary screen)
Cell system: primary Drosophila neurons and glia
Reagent: long dsRNA against Drosophila genes, 250 ng dsRNA per well
Timing: one week
Measurement: 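GFP-labelled neurons and glia imaged live by automated microscope one week after 250 ng dsRNA per well; morphology scored by eye as descriptive phenotype terms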

peb (pebbled) [DRSC18817]
- phenotype seen, replicate 1: sheet-like cell extensions

CG3699 [DRSC18171]
- phenotype seen, replicate 1: axon bundles split apart

aly (always early) [DRSC08707]
- phenotype seen, replicate 1: abnormal cell clusters

CG16815 [DRSC02521]
- phenotype seen, replicate 1: abnormal cell clusters

CG16739 [DRSC06621]
- phenotype seen, replicate 1: axon bundles split apart

wtrw (water witch) [DRSC15278]
- phenotype seen, replicate 1: neurite branching

Rpt4 (Regulatory particle triple-A ATPase 4) [DRSC18713]
- phenotype seen, replicate 1: sheet-like cell extensions

Gr58b (Gustatory receptor 58b) [DRSC04140]
- phenotype seen, replicate 1: axon bundles split apart

Gad1 (Glutamic acid decarboxylase 1) [DRSC08661]
- phenotype seen, replicate 1: sheet-like cell extensions

G9a [DRSC18619]
- phenotype seen, replicate 1: beaded; swollen axons

Src42A (Src oncogene at 42A) [DRSC04915]
- phenotype seen, replicate 1: too many neurite branches

CG11977 [DRSC14454]
- phenotype seen, replicate 1: axon bundles split apart

Pde8 (Phosphodiesterase 8) [DRSC04503]
- phenotype seen, replicate 1: sheet-like cell extensions

MsrA (Methionine sulfoxide reductase A) [DRSC11159]
- phenotype seen, replicate 1: too many neurite branches

Drl-2 (Derailed 2) [DRSC05393]
- phenotype seen, replicate 1: reduced axon outgrowth

Drl-2 (Derailed 2) [DRSC06858]
- phenotype seen, replicate 1: abnormal cell clusters

Adh + Adhr [DRSC01862]
- phenotype seen, replicate 1: sheet-like cell extensions

Prx6c (Peroxiredoxin 6c) [DRSC06080]
- phenotype seen, replicate 1: too many neurite branches

Pgant1 (Polypeptide N-Acetylgalactosaminyltransferase 1) [DRSC07095]
- phenotype seen, replicate 1: axon bundles split apart

Eig71Eg (Ecdysone-induced gene 71Eg) [DRSC11154]
- phenotype seen, replicate 1: too many neurite branches

tst + CG10375 [DRSC14237]
- phenotype seen, replicate 1: more neurite growth

chp (chaoptin) [DRSC16925]
- phenotype seen, replicate 1: axon bundles split apart

Frl (Formin-like) [DRSC10027]
- phenotype seen, replicate 1: axon bundles split apart

betaTub97EF (beta-Tubulin at 97EF) [DRSC15666]
- phenotype seen, replicate 1: sheet-like cell extensions

betaTub97EF (beta-Tubulin at 97EF) [DRSC15667]
- phenotype seen, replicate 1: axon bundles split apart

CG6793 [DRSC10714]
- phenotype seen, replicate 1: beaded; swollen axons

M1BP (Motif 1 Binding Protein) [DRSC16566]
- phenotype seen, replicate 1: abnormal cell clusters

Dh31-R (Diuretic hormone 31 Receptor) [DRSC06647]
- phenotype seen, replicate 1: too many neurite branches

Dh31-R (Diuretic hormone 31 Receptor) [DRSC06669]
- phenotype seen, replicate 1: fewer cells

Gr28b (Gustatory receptor 28b) [DRSC02292]
- phenotype seen, replicate 1: too many neurite branches

mAChR-A (muscarinic Acetylcholine Receptor, A-type) [DRSC04702]
- phenotype seen, replicate 1: abnormal cell clusters

Alg1 (ALG1, chitobiosyldiphosphodolichol beta-mannosyltransferase) [DRSC15297]
- phenotype seen, replicate 1: too many neurite branches

Reformatted: results already given.
{"Gene":"Src42A (Src oncogene at 42A)","DRSC id":"DRSC04915","phenotype seen, replicate 1":"too many neurite branches"}
{"Gene":"CG11977","DRSC id":"DRSC14454","phenotype seen, replicate 1":"axon bundles split apart"}
{"Gene":"Pde8 (Phosphodiesterase 8)","DRSC id":"DRSC04503","phenotype seen, replicate 1":"sheet-like cell extensions"}
